The results in this text go back to article PMC5617834.

Chains of the proteins cited; added tags and fusions are not shown.
UniProt Q96J02: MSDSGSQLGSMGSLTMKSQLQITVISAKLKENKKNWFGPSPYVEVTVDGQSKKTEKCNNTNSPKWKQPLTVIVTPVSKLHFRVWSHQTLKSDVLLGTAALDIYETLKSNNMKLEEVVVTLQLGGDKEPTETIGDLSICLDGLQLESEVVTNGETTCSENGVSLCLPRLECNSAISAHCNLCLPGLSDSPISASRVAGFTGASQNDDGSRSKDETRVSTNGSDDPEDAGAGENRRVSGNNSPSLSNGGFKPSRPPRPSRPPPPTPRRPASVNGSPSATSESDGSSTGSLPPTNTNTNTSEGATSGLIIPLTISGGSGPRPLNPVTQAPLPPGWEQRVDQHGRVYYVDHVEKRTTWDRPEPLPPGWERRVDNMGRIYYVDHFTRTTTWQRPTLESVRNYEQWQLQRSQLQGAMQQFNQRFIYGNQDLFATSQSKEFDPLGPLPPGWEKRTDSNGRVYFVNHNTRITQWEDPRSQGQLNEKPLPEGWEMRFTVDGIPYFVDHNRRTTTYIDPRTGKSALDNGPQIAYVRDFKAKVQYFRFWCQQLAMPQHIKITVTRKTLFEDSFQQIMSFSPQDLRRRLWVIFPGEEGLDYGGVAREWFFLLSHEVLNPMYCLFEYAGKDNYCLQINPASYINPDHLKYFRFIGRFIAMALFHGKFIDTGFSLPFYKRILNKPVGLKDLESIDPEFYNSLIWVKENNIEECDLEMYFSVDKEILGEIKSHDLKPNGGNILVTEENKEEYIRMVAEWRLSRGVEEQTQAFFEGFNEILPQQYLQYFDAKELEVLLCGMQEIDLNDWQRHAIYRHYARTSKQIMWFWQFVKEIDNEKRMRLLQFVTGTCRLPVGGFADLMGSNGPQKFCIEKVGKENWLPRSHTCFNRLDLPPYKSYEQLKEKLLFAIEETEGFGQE

For the assay, the target named is Flag-tagged ITCH (AIP4) E3 ligase (UniProt Q96J02). The experiment in a line: co-IP; reverse direction: HEK293T cells co-transfected with Flag-ITCH and HA-ARRDC1 or ARRDC1-delPPXY; ITCH pulled down by anti-Flag antibody.

Results are given in words; binding and its absence hold for the method and conditions named. In cells and extracts the contact can be indirect. Some binding calls cover weakened binding; strength is not graded here. Sequences can lack the tags named with a protein.

B1: HA-tagged ARRDC1 (arrestin domain-containing protein 1) (protein, UniProt Q8N5I2 1-433)
chain: MGRVQLFEISLSHGRVVYSPGEPLAGTVRVRLGAPLPFRAIRVTCIGSCGVSNKANDTAWVVEEGYFNSSLSLADKGSLPAGEHSFPFQFLLPATAPTSFEGPFGKIVHQVRAAIHTPRFSKDHKCSLVFYILSPLNLNSIPDIEQPNVASATKKFSYKLVKTGSVVLTASTDLRGYVVGQALQLHADVENQSGKDTSPVVASLLQKVSYKAKRWIHDVRTIAEVEGAGVKAWRRAQWHEQILVPALPQSALPGCSLIHIDYYLQVSLKAPEATVTLPVFIGNIAVNHAPVSPRPGLGLPPGAPPLVVPSAPPQEEAEAEAAAGGPHFLDPVFLSTKSHSQRQPLLATLSSVPGAPEPCPQDGSPASHPLHPPLCISTGATVPYFAEGSGGPVPTTSTLILPPEYSSWGYPYEAPPSYEQSCGGVEPSLTPES
As to B1, the binding result is listed as “binds”.
